# Test results published in the supplement of paper PMC12889115.
# The list shows a part of the results. Values are raw readings; no control value is given beside them.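 Primary screen: polymyxin B was added at a level permeabilizing Salmonella outer membranes while sparing inner membranes. DMSO wells, both with and without polymyxin B, established maximum growth. Plate-to-plate variation meant each plate was ranked on its own, and the lowest-OD600 compounds were selected as hits.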
# System: Salmonella enterica serovar Typhimurium SL1344
# Experiment: bacterial growth OD600 after 18 h with compound and polymyxin B; higher = more bacterial growth (less inhibition)
# Details: 50 µM, Mueller-Hinton broth
SMILES,bacterial growth OD600 (polymyxin B 1 µg/mL),bacterial growth OD600 (polymyxin B 0.75 µg/mL)
CCN(CC)c1ncccc1CNC(=O)c1cnc(C)cn1,0.987,
COCC(=O)NC1CC(=O)N(CCc2ccc(OC)cc2)C1 (stereo not given),0.891,
O=C([C@@H]1C[C@@H]2C=C[C@H]1C2)N1CCC(C2(c3cccnc3)NC(=O)N(CCc3cccs3)C2=O)CC1 (stereo not given in full),,0.817
Cc1[nH]c2c(CNCc3ccc4nonc4c3)cc(F)cc2c1C,0.792,
Cc1ccccc1-n1ncc(C(C)NC(=O)Cc2ccc3c(c2)OCO3)c1C (stereo not given),0.891,
C=CCC(=O)N1CCC2(CCCN(Cc3cccc(F)c3F)C2=O)C1 (stereo not given),0.458,
Cc1nc(CN2C[C@H]3OC(=O)N(CCCc4ccc(F)cc4)[C@H]3C2)c[nH]1,,0.855
CC(=O)c1ccc(C(=O)N(C)CC2CCCN(CCc3ccc(F)cc3)C2)cc1 (stereo not given),0.753,
CC1CCN(CC2(O)CCCN(Cc3ccccc3F)C2=O)CC1 (stereo not given),0.874,
O=C(CCn1cncn1)N1CCCC(CCc2cccc(F)c2)C1 (stereo not given),,0.81
Cc1nc2ccccc2n1Cc1cc(C(=O)N(C)Cc2ccon2)n[nH]1,0.895,
CN(Cc1ccccc1)C(=O)c1nc2ccccn2c1CNC1CCCC1,0.598,
CCO[C@H]1[C@H](NC(=O)CC)c2ccccc2C12CCN(Cc1ccc(OCCO)cc1)CC2,,0.843
CCN1CCN(C2(C(=O)NCC(C)(C)CO)Cc3ccccc3C2)CC1,,0.866
CCC(=O)N[C@@H]1c2ccccc2C2(CCN(C(=O)c3cc(CC)on3)CC2)[C@H]1OCc1cccnc1,,0.879
CCN1CCN(C2(C(=O)N(C)Cc3nccs3)Cc3ccccc3C2)CC1,,0.941
COc1ccc(NC(=O)CCC2CCCN(Cc3cccc(C)n3)C2)c(C)c1 (stereo not given),0.937,
Cc1nn(C)cc1CN(C)Cc1c(C(=O)N(C)Cc2ccccc2)nc2ccccn12,,0.855
Cc1c(C(=O)NC(C)(C)CO)sc2ncnc(NCCc3ccccc3)c12,,0.863
CCOC(=O)C1(CCCc2ccccc2)CCN(C(=O)C2CC23CCC3)CC1 (stereo not given),0,

# A portion taken from the entries so far, for reference:
SMILES,bacterial growth OD600 (polymyxin B 1 µg/mL),bacterial growth OD600 (polymyxin B 0.75 µg/mL)
COc1ccc(NC(=O)CCC2CCCN(Cc3cccc(C)n3)C2)c(C)c1 (stereo not given),0.937,
Cc1nn(C)cc1CN(C)Cc1c(C(=O)N(C)Cc2ccccc2)nc2ccccn12,,0.855
